Consider 3 molecules from PubChem BioAssay AID179 (DTP/NCI, 2004).

The subject of the assay is CEM cells HIV-1 protection, formazan growth assay. Briefly: NCI AIDS Antiviral Assay. The note with it: for IC50: measured here: growth of uninfected CEM cells. The method in brief: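 Protection of CEM cells against HIV-1 measured as cell growth via soluble formazan read-out, with five concentrations tested on both infected and uninfected cells; failure to protect may reflect toxicity.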

What is called EC50 is the concentration needed to bring the measured effect to its halfway point. Broadly, the IC50 is the point on the concentration scale where inhibition reaches its midpoint.

Regarding `COc1cc2c(c(OC)c1OC)-c1ccc(OC)c(=O)cc1[C@@H](N)CC2`, the EC50 is above 200 nM and the IC50 amounted to 12.3 nM.

In the case of `CCOC(=O)NC1CCc2cc(OC)c(OC)c(OC)c2-c2ccc(OC)c(=O)cc21` (stereo unspecified), the EC50 is above 200 nM and the IC50 amounted to 3.31 nM.

`COc1cc2c(c(OC)c1OC)-c1ccc(SC)c(=O)cc1[C@@H](NC(C)=O)CC2`: the EC50 is above 200 nM and the IC50 amounted to 0.955 nM.
